Source: the supplement of paper PMC4635364
Where a name gives a salt, the structure may show the parent alone. The list shows a part of the results. Repeats in this data set agree poorly, so a single value says little.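 Human fetal ventral-midbrain neural progenitor line ReNCell VM, differentiated without mitogens. Images stained for doublecortin (early neurons) or tyrosine hydroxylase (dopaminergic neurons) were scored by blinded raters against untreated wells (0 = no change). Repeats and both raters were averaged, and compounds averaging 2 or higher were picked as hits for retesting.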

These compounds were tested on ReNCell VM (assay: neuronal differentiation score (DCX+ cell fraction vs untreated, manual image score) (score (-3 to 3)); higher = more neuronal differentiation). Conditions: library: Prestwick; 2 uM; 2 weeks.

SMILES | neuronal differentiation score
C[N+]1(CCCCC[N+]2(C)CCCC2)CCCC1 [Pentolinium bitartrate] | inactive: 0
CC1CNc2c(cccc2S(=O)(=O)N[C@@H](CCCNC(=N)N)C(=O)N2CC[C@@H](C)C[C@@H]2C(=O)O)C1 (stereo partly drawn) [Argatroban] | inactive: 0
CCCCN1CCCCC1C(=O)Nc1c(C)cccc1C (stereo not drawn) [Bupivacaine hydrochloride] | inactive: 0
CC1(C)O[C@@H]2C[C@H]3[C@@H]4C[C@H](F)C5=CC(=O)CC[C@]5(C)[C@H]4[C@@H](O)C[C@]3(C)[C@]2(C(=O)CO)O1 [Flurandrenolide] | inactive: 0
CCCC(=O)Nc1ncnc2c1ncn2[C@@H]1O[C@@H]2COP(=O)(O)O[C@H]2[C@H]1OC(=O)CCC [Bucladesine sodium salt] | inactive: 0
CCOC(=O)[C@H](CCc1ccccc1)N[C@@H](C)C(=O)N1CCC[C@H]1C(=O)O [Enalapril maleate] | inactive: 0
COC(c1ccccc1)(c1ccccc1)[C@H](Oc1nc(C)cc(C)n1)C(=O)O [Ambrisentan] | inactive: 0
C/C(=C(\CCOP(=O)(O)O)SC(=O)c1ccccc1)N(C=O)Cc1cnc(C)nc1N [Benfotiamine] | inactive: 0
C[C@]12CC[C@@H]3c4ccc(O)cc4CC[C@H]3[C@@H]1C[C@@H](O)[C@@H]2O [Estriol] | inactive: 0

Shown field by field: 2 of the compounds above
CCCCN1CCCCC1C(=O)Nc1c(C)cccc1C (stereo not drawn) [Bupivacaine hydrochloride]
  neuronal differentiation score: inactive: 0
C[C@]12CC[C@@H]3c4ccc(O)cc4CC[C@H]3[C@@H]1C[C@@H](O)[C@@H]2O [Estriol]
  neuronal differentiation score: inactive: 0

Same assay, conditions: library: Spectrum; 2 uM; 2 weeks

SMILES | neuronal differentiation score
COc1ccc(C(=O)c2ccc(O)cc2)c(O)c1O | inactive: 0
O=C1NS(=O)(=O)c2ccccc21 | inactive: 0
OC[C@H]1O[C@@H](O[C@H]2[C@H](O)[C@@H](O)[C@@H](O)O[C@@H]2CO)[C@H](O)[C@@H](O)[C@@H]1O | inactive: 0
O=C(/C=C/c1ccc(O)cc1)c1ccc(O)cc1O | inactive: 0
N[C@@H](C(=O)N[C@@H]1C(=O)N2C(C(=O)O)=C(Cl)CS[C@H]12)c1ccccc1 | inactive: 0
CNC[C@H](O)c1cccc(O)c1 | inactive: 0
CC(=O)[C@H]1CC[C@H]2[C@@H]3C=CC4=CC(=O)CC[C@@]4(C)[C@@H]3CC[C@]12C | inactive: -1
CCCc1nc(C(C)(C)O)c(C(=O)OCc2oc(=O)oc2C)n1Cc1ccc(-c2ccccc2-c2nnn[nH]2)cc1 | inactive: 0
C[C@H]1[C@H](OC(=O)CCC(=O)O)O[C@@H]2O[C@@]3(C)CC[C@H]4[C@H](C)CC[C@@H]1[C@@]24OO3 | inactive: 0
O=C(/C=C/c1ccccc1)c1ccc(O)cc1O | inactive: 0
CC1=CC(=O)c2ccccc2C1=O | inactive: 0
COc1cc(-c2ccc(/N=N/c3ccc4c(S(=O)(=O)O)cc(S(=O)(=O)O)c(N)c4c3O)c(OC)c2)ccc1/N=N/c1ccc2c(S(=O)(=O)O)cc(S(=O)(=O)O)c(N)c2c1O | inactive: 0
NS(=O)(=O)c1cc2c(cc1C(F)(F)F)NCNS2(=O)=O | inactive: 0
O=C(OC[C@H]1O[C@@H](OC(=O)c2cc(O)c(O)c(OC(=O)c3cc(O)c(O)c(O)c3)c2)[C@H](OC(=O)c2cc(O)c(O)c(OC(=O)c3cc(O)c(O)c(O)c3)c2)[C@@H](OC(=O)c2cc(O)c(O)c(OC(=O)c3cc(O)c(O)c(O)c3)c2)[C@@H]1OC(=O)c1cc(O)c(O)c(OC(=O)c2cc(O)c(O)c(O)c2)c1)c1cc(O)c(O)c(OC(=O)c2cc(O)c(O)c(O)c2)c1 | inactive: 0

Same assay, conditions: library: Tocriscreen; 2 uM; 2 weeks

SMILES | neuronal differentiation score
Cc1cccc(C#Cc2ccccc2)n1 [MPEP hydrochloride] | inactive: 0
N#C/C(=C\c1ccc(O)c(O)c1)C(=O)NCCCCc1ccccc1 | inactive: 0
CC(C)C[C@H](NC(=O)N1CCCCCC1)C(=O)N[C@H](Cc1cn(C)c2ccccc12)C(=O)N[C@H](Cc1ccccn1)C(=O)O | inactive: 0
C[C@@H](CN1CC(=O)NC(=O)C1)N1CC(=O)NC(=O)C1 [Dexrazoxane hydrochloride] | inactive: 0
O=C(O)C(=O)O.[NH-][C@@H]1CCCC[C@H]1[NH-].[Pt+2] [Oxaliplatin] | inactive: 0
C=CCn1c(=O)n([C@@H]2O[C@H](CO)[C@@H](O)[C@H]2O)c2nc(N)[nH]c(=O)c21 | inactive: 0

What follows are compounds tested on ReNCell VM (assay: dopaminergic neuron differentiation score (TH+ cell fraction vs untreated, manual image score) (score (0 to 3)); higher = more TH+ dopaminergic neuron differentiation). Conditions: library: LOPAC; 2 uM; 4 weeks; BDNF 10 ng/ml + GDNF 10 ng/ml.

SMILES | dopaminergic neuron differentiation score
O=Nc1ccc2oc(=O)ccc2c1 [6-Nitroso-1,2-benzopyrone] | inactive: 0
NC(Cc1cccc(-c2ccccc2CP(=O)(O)O)c1)C(=O)O (stereo not drawn) [Phenylbenzene-omega-phosphono-alpha-amino acid] | inactive: 0
NC[C@@H](O)c1ccc(O)c(O)c1 [L(-)-Norepinephrine bitartrate] | inactive: 0
N[C@@H](Cc1c[nH]cn1)C(=O)O [L-Histidine hydrochloride] | inactive: 0
O=C(Cc1ccc(Cl)c(Cl)c1)OCCN1CCCC1 [AC 915 oxalate] | inactive: 0
CN1CCN(CC/C=C2/c3ccccc3Sc3ccc(S(=O)(=O)N(C)C)cc32)CC1 [Thiothixene hydrochloride] | inactive: 0
CCN(c1nc(N)c(C(=O)NC(=N)N)nc1Cl)C(C)C [5-(N-Ethyl-N-isopropyl)amiloride] | inactive: 0
COc1ccccc1N1CCN(CCN(C(=O)c2ccc(I)cc2)c2ccccn2)CC1 [p-MPPI hydrochloride] | inactive: 0
C[N+](C)(C)CCCCCC[N+](C)(C)C [Hexamethonium dichloride] | inactive: 0
